Measured values as given in paper doi:10.1101/2025.10.27.684941.
No constants are given. Whether binding was seen depends on the method and setting. Binding seen in cells or lysates may run through a third protein. A result given as binding can be weak or reduced; the word gives no strength.

Chains of the proteins cited; added tags and fusions are not shown. Lines headed by an entry give the natural chain unless they say otherwise; changes in a name come on top.
UniProt Q9UDY2: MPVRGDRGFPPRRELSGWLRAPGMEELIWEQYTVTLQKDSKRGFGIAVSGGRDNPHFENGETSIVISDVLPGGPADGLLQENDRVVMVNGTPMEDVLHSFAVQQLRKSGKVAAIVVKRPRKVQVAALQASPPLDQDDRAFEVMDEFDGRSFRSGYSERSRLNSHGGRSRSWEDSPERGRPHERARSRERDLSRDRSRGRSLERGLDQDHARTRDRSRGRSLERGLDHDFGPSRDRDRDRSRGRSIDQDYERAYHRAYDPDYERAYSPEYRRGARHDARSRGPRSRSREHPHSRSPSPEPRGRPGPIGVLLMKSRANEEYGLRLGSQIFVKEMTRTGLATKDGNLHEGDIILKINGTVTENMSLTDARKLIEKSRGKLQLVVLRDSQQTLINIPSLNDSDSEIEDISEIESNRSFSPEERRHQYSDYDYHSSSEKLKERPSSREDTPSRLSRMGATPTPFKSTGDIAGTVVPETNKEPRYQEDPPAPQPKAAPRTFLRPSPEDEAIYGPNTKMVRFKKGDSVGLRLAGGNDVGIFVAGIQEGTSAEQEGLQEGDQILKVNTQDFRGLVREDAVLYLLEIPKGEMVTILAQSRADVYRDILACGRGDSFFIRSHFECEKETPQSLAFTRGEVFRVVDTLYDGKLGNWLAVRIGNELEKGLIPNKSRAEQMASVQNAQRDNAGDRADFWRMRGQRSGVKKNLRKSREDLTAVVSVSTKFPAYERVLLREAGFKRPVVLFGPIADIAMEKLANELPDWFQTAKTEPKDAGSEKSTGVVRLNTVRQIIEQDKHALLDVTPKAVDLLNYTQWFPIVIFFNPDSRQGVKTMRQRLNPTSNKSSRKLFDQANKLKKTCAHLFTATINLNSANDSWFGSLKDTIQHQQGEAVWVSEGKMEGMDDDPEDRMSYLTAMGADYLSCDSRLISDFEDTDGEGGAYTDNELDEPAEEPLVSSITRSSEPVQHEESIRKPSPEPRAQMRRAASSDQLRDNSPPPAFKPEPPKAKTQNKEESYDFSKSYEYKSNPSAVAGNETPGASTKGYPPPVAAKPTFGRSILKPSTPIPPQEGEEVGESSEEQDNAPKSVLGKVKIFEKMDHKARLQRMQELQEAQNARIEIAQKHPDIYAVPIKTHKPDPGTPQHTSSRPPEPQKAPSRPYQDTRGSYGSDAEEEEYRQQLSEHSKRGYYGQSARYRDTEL
UniProt O54851: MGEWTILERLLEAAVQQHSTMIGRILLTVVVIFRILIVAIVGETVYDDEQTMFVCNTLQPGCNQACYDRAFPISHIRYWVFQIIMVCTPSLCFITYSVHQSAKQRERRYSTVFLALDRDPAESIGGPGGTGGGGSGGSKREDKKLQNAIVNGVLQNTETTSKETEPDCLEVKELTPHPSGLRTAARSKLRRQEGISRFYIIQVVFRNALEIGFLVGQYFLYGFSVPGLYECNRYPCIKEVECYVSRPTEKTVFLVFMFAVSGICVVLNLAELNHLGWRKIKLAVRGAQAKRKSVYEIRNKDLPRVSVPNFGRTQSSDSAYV

Molecular target: first PDZ domain of ZO-2 (UniProt Q9UDY2)
Assay: co-IP

Row | Substance | binding
1 | Cx36 A319T (from UniProt O54851 1-321) | binds
2 | Cx36 D317F (from UniProt O54851 1-321) | binds

Continued, values first:

Row | binding | Substance
3 | binds | Connexin 36 (wild type) (from UniProt O54851 1-321)
4 | binds | Cx36 D317A (from UniProt O54851 1-321)
5 | no binding | Cx36 S318ter (from UniProt O54851 1-317) (domain or fragment)
